# Laboratory results published in the supplement of paper PMC11732987, “Enantioselective OTUD7B fragment discovery through chemoproteomics screening and high-throughput optimisation” (Communications Chemistry, 2025).
# By UniProt entry, the sequences of proteins in these tests, tags left out. Where a name states a change or a piece, a line headed by the entry shows the natural chain unless it says otherwise. Residues count along the entry.
# UniProt O43318: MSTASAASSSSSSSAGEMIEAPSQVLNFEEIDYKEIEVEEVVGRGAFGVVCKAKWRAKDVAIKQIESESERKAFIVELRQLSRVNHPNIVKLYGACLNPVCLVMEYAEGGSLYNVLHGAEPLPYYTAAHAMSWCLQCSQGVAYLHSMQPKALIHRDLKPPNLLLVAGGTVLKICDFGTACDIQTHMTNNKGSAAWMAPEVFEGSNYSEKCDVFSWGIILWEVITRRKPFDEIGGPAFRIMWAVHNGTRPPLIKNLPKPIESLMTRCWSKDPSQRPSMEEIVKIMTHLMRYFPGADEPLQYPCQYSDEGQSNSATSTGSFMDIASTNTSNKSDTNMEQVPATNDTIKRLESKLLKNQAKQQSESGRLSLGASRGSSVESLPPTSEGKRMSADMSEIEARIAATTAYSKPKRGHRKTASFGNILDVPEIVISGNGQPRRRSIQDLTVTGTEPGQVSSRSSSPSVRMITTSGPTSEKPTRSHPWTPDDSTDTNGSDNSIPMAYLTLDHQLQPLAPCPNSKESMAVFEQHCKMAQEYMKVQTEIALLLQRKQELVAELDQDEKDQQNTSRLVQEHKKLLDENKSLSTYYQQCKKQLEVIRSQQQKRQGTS
# UniProt Q5VWZ2: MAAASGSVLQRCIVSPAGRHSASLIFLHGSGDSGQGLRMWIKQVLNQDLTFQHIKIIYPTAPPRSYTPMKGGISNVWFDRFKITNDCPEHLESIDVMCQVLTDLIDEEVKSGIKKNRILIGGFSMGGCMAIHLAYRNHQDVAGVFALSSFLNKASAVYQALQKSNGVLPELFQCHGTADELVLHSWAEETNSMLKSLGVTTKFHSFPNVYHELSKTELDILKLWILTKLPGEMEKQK
# UniProt P27448: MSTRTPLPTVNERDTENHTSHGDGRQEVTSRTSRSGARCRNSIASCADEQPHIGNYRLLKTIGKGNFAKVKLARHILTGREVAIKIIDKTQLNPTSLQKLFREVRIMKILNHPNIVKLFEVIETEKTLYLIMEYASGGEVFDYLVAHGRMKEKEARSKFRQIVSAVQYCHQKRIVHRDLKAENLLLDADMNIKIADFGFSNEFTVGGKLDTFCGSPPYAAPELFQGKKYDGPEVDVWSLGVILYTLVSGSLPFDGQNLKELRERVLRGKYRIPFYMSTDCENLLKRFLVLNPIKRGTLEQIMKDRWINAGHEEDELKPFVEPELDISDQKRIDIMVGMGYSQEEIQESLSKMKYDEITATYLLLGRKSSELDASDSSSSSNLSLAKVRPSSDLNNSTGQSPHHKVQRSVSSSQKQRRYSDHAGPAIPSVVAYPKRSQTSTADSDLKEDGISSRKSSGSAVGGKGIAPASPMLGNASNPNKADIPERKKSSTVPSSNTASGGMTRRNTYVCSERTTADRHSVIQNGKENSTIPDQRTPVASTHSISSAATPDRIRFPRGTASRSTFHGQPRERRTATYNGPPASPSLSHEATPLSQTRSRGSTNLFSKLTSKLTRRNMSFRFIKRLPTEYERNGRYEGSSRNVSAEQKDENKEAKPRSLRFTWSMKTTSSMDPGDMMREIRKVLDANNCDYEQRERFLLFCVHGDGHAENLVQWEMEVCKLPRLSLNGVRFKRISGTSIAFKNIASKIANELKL
# UniProt Q8IVH8: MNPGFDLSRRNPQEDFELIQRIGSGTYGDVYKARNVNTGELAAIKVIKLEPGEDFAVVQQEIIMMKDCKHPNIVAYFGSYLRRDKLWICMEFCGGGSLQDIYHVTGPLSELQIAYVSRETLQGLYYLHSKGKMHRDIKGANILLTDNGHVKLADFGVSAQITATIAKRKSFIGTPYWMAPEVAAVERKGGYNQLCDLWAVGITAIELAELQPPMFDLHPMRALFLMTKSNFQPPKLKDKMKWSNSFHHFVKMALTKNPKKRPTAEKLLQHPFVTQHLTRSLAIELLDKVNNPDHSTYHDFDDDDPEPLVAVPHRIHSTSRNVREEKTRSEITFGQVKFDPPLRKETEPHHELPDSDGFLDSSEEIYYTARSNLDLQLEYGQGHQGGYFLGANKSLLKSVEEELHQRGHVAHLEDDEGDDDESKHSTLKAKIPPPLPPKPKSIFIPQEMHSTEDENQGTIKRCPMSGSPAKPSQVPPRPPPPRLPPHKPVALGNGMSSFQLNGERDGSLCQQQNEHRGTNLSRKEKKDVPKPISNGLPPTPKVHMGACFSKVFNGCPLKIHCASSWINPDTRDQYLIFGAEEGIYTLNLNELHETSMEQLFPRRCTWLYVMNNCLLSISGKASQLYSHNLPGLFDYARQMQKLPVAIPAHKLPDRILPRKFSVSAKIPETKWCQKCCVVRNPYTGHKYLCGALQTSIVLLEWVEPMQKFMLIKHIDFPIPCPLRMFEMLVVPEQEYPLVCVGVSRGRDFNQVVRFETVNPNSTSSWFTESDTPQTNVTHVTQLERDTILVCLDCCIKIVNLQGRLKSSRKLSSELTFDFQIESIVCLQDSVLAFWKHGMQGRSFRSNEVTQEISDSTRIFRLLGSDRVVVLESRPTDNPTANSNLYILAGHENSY
# UniProt O60318, 420-440: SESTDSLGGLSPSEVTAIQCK
# UniProt Q9NT99: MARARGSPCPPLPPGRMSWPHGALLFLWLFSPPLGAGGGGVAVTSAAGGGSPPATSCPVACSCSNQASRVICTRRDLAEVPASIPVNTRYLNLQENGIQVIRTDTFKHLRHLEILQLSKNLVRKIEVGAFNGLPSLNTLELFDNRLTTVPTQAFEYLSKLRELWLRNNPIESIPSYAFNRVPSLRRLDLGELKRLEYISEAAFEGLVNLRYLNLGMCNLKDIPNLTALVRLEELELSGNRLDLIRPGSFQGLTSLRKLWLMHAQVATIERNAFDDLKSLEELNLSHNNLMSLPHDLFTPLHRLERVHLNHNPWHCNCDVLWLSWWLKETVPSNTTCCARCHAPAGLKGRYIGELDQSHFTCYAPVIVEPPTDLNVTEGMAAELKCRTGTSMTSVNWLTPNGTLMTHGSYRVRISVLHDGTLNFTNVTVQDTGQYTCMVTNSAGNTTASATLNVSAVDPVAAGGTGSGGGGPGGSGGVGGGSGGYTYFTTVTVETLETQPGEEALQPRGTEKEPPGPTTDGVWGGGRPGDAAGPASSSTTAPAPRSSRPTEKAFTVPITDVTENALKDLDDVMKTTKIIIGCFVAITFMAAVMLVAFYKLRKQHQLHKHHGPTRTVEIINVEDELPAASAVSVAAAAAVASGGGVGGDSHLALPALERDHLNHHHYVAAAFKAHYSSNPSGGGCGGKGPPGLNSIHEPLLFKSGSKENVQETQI
# UniProt P36941: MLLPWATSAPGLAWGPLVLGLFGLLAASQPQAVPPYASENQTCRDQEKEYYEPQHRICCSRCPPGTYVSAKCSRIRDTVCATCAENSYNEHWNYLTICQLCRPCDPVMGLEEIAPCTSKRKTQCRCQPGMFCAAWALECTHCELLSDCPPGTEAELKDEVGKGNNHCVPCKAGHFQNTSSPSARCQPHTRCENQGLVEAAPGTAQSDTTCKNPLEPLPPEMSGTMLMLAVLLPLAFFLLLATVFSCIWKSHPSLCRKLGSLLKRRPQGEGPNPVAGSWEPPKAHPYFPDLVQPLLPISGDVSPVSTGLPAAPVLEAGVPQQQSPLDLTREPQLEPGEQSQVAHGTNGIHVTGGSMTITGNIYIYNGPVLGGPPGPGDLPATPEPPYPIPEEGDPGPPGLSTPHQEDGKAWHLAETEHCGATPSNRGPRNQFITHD
# UniProt Q99683: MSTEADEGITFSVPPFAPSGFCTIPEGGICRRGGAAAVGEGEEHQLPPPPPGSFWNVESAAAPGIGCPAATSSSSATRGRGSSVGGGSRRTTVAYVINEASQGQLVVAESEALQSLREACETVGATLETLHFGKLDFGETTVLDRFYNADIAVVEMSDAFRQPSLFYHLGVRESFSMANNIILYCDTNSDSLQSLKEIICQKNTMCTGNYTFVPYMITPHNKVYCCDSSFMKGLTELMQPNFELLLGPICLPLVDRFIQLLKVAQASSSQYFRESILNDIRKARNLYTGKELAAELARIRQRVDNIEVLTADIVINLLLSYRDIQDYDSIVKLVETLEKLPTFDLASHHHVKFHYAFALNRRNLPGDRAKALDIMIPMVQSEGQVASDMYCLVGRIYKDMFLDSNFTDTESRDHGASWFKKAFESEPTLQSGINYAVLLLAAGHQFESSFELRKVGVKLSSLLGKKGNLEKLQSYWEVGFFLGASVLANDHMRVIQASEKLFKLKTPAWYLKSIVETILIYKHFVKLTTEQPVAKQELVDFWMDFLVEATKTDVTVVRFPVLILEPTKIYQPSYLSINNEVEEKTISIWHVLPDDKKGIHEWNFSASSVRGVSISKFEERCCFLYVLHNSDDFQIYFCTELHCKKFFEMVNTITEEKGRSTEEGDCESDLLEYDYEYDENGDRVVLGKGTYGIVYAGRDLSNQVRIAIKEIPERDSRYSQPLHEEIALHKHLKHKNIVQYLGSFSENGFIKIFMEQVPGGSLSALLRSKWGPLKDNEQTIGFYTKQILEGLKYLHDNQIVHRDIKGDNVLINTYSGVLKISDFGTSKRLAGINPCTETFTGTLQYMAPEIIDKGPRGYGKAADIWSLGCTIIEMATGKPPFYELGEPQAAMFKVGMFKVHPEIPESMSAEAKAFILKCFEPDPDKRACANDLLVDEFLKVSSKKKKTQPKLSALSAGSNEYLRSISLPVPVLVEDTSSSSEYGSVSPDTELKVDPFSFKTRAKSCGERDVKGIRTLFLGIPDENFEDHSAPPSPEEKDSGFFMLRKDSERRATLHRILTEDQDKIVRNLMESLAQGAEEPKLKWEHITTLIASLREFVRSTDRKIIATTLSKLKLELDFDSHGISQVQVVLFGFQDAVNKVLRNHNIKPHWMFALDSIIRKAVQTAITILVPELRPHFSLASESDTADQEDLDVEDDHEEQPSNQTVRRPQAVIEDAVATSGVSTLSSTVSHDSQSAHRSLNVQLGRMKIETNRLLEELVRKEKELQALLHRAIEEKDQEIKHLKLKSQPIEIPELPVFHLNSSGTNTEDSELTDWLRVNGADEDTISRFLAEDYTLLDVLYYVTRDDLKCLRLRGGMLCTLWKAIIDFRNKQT
# UniProt Q8N5G2: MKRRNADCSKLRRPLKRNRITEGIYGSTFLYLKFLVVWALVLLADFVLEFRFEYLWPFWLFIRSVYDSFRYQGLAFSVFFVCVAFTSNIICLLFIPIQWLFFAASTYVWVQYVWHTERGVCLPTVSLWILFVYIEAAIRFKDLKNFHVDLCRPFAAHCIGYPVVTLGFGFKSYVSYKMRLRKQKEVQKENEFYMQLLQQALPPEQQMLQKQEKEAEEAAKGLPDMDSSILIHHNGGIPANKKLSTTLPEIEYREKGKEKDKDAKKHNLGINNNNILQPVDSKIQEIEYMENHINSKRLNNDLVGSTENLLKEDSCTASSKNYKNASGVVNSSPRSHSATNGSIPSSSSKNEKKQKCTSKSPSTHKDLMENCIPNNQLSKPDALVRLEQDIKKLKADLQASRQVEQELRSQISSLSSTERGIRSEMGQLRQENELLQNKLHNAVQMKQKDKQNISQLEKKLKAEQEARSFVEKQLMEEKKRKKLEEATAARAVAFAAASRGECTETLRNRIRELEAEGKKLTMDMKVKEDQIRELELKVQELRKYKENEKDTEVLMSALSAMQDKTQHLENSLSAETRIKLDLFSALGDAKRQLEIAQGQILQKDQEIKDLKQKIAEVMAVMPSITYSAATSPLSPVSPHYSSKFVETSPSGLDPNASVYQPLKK
# UniProt P33993, 44-71: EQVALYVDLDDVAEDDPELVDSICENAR
# UniProt Q5U5X0: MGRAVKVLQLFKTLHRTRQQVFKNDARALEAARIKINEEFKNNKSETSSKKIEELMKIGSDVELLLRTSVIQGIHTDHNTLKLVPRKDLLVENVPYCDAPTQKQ
# UniProt Q96GW9: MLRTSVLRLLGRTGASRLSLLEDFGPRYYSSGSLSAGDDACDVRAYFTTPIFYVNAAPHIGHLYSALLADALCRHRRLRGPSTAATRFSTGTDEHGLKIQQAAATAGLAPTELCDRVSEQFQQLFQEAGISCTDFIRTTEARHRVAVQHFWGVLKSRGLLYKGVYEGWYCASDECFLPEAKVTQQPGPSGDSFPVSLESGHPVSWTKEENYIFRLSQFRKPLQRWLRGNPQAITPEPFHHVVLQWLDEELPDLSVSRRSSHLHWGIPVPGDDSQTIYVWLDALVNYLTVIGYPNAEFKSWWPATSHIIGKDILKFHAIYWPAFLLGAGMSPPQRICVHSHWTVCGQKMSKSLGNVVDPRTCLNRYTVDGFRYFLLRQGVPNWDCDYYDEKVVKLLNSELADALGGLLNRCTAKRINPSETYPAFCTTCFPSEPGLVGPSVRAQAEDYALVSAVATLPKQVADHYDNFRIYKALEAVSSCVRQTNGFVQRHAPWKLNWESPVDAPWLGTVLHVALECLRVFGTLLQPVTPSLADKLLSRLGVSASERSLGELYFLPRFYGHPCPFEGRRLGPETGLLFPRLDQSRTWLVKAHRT
# UniProt Q9BX40, 289-314: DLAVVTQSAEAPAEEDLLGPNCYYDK
# UniProt Q9UK45: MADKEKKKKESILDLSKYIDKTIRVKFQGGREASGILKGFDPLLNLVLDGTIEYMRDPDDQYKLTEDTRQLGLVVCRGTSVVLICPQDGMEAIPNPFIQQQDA
# The other results are listed elsewhere or left out. The data scatter; read single values as rough.
# Tests used:
# [1] = compound: ClCC(=O)N[C@@H]1CCCc2ccccc12; assay: log2 mean competition ratio of IA-DTB cysteine labelling (DMSO/compound) (log2 ratio); higher = stronger cysteine engagement by compound; conditions: treatment time: 4 h, cell line lysate: HEK293T
# Method: (§1)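 IA-DTB competitive cysteine chemoproteomics in HEK293T RIPA lysate. Lysates were treated with compound 29 or 30 at 50 or 200 µM for 4 h, then IA-DTB (500 µM, 1 h), trypsin-digested, NeutrAvidin-enriched and analysed by diaPASEF. Competition ratio = intensity DMSO / intensity compound (n=4 treated, n=64 DMSO); binding: mean log2 CR ≥ 1 and p ≤ 0.05 plus QC filters. Target is the cysteine site.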
# [2] = compound: ClCC(=O)N[C@H]1CCCc2ccccc12; assay: as above; conditions: treatment time: 4 h, cell line lysate: HEK293T
# Method: as §1
Target,log2 mean competition ratio ([1]; 50 µM),log2 mean competition ratio ([1]; 200 µM),log2 mean competition ratio ([2]; 50 µM),log2 mean competition ratio ([2]; 200 µM)
MAP3K7 C51 (UniProt O43318),-0.277,-0.134,-0.0618,-0.154
MAD2L1BP C221 (UniProt Q15013),-0.046,0.201,0.00755,0.119
LRRC8C C571,0.0294,0.00744,-0.0053,-0.0183
LYPLAL1 C12 (UniProt Q5VWZ2),-0.0187,-0.215,0.116,-0.212
MAPK7 C194 (UniProt Q13164),-0.292,0.35,-0.395,0.213
MAK16 C44 (UniProt Q9BXY0),0.0678,-0.138,-0.0942,-0.16
MASTL C455 (UniProt Q96GX5),0.127,0.112,0.21,0.0556
MAML1 C957 (UniProt Q92585),0.375,-0.0151,-0.291,0.189
MAGI1 C1065,0.359,0.136,-0.0845,0.165
LRRC40 C54 (UniProt Q9H9A6),0.114,0.157,0.346,0.308
MACF1 C4825,0.0902,0.157,0.327,0.19
MBNL1 C185,-0.149,0.478,-0.0139,0.409
LUZP1 C969 (UniProt Q86V48),0.439,0.238,0.292,0.228
MARK4 C299 (UniProt Q96L34),0.0536,-0.151,-0.117,-0.0102
MARK3 C46 (UniProt P27448),-0.0725,0.245,-0.669,0.0813
MAP3K6 C189 (UniProt O95382),0.128,0.211,-0.308,0.103
LZTS2 C307 (UniProt Q9BRK4),-0.0442,-0.0831,0.127,0.176
LRRC41 C266 (UniProt Q15345),-0.0478,0.117,-0.0647,0.131
MARK2 C166,0.0504,0.06,0.4,-0.0407
MAP4K3 C720 (UniProt Q8IVH8),-0.0868,-0.0204,-0.46,0.143
LTN1 C869 (UniProt O94822),-0.0267,0.208,-0.335,0.104
LSG1 C475 (UniProt Q9H089),0.242,0.289,-0.302,-0.431

Target,log2 mean competition ratio ([1]; 50 µM),log2 mean competition ratio ([1]; 200 µM),log2 mean competition ratio ([2]; 50 µM),log2 mean competition ratio ([2]; 200 µM)
MCM6 C393 (UniProt Q14566),-0.312,-0.28,-0.0257,-0.137
MAPK13 C162,-0.123,-0.000518,-0.453,-0.223
MBOAT2 C146 (UniProt Q6ZWT7),0.161,-0.0573,-0.451,-0.0162
MCM3AP C439 (UniProt O60318),-0.21,0.307,-0.0366,0.332
LRRC4B C340 (UniProt Q9NT99),0.187,-0.109,0.131,-0.0216
MCM3AP C274 (UniProt O60318),-0.395,-0.139,0.555,-0.031
MACF1 C6075,0.0238,–,-0.258,0.00623
LRRTM4 C339,-0.0288,0.128,0.237,0.347
MAGI1 C526,-0.156,–,-0.266,-0.264
MALSU1 C110 (UniProt Q96EH3),-0.255,-0.353,-0.103,-0.13
LTBR C418 (UniProt P36941),0.0921,0.0164,-0.336,-0.31
LRRC45 C385 (UniProt Q96CN5),0.191,-0.0519,0.144,0.0192
MAP3K5 C928 (UniProt Q99683),–,-0.318,-0.0352,0.273
MAP3K4 C1581 (UniProt Q9Y6R4),0.148,0.104,0.11,0.127
MAP2K1 C277 (UniProt Q02750),0.187,0.143,0.743,-0.136
MAP2K3 C29 (UniProt P46734),0.115,-0.0806,0.0777,-0.34
LRRC59 C131 (UniProt Q96AG4),-0.286,0.0623,-0.249,0.25
MAP7D1 C373 (UniProt Q3KQU3),0.15,0.0158,0.312,0.0951
LRRC8C C774,0.25,0.0616,0.144,0.0185
MAP3K1 C1012 (UniProt Q13233),-0.0226,0.386,0.39,0.366
MASTL C271 (UniProt Q96GX5),-0.0637,-0.00374,-0.22,0.35
MAPKAP1 C149 (UniProt Q9BPZ7),1.04,-0.0608,0.57,-0.67

Target,log2 mean competition ratio ([1]; 50 µM),log2 mean competition ratio ([1]; 200 µM),log2 mean competition ratio ([2]; 50 µM),log2 mean competition ratio ([2]; 200 µM)
MACO1 C502 (UniProt Q8N5G2),0.0391,0.291,0.309,0.302
MAF C305,0.268,0.43,0.198,0.424
LRRC14 C109 (UniProt Q15048),0.13,0.332,-0.163,0.134
MAP3K4 C596 (UniProt Q9Y6R4),-0.0763,-0.0458,-0.201,-0.0259
MAP4K5 C418 (UniProt Q9Y4K4),-0.252,0.657,-0.158,0.495
LRR1 C114 (UniProt Q96L50),0.0262,0.0376,-0.262,-0.074
MCM8 C548,-0.0394,-0.121,0.203,0.0506
LUC7L C59 (UniProt Q9NQ29),-0.164,0.053,-0.0251,0.096
MAP4 C535,-0.28,-0.11,-0.238,-0.0136
MAP7D3 C494 (UniProt Q8IWC1),0.149,0.0699,0.201,0.133
MACF1 C7344,-0.543,-0.592,-0.483,-0.293
MCM7 C67 (UniProt P33993),-0.293,0.208,0.0267,-0.231
LYN C468 (UniProt P07948),-0.107,-0.115,-0.163,0.12
LTN1 C981 (UniProt O94822),0.141,0.069,-0.162,0.191
LRRFIP1 C456 (UniProt Q32MZ4),0.0611,-0.041,0.0539,-0.167
LYRM7 C97 (UniProt Q5U5X0),-0.313,-0.0624,-0.134,0.0476
MCMBP C200 (UniProt Q9BTE3),-0.156,0.0852,0.36,0.139
MARS2 C114 (UniProt Q96GW9),-0.389,-0.00166,0.202,-0.293
LSM14B C310 (UniProt Q9BX40),-0.333,-0.0188,0.237,0.125
MAP7D2 C574,-0.0371,-0.174,0.0703,0.048
MCM3AP C1285 (UniProt O60318),-0.127,0.0854,0.31,0.0501
LSM7 C76 (UniProt Q9UK45),0.323,0.176,0.83,0.221

# Whole records as entered above. Order of values: log2 mean competition ratio ([1]; 50 µM)	log2 mean competition ratio ([1]; 200 µM)	log2 mean competition ratio ([2]; 50 µM)	log2 mean competition ratio ([2]; 200 µM)
# LYRM7 C97 (UniProt Q5U5X0) in the list: -0.313	-0.0624	-0.134	0.0476
# MARS2 C114 (UniProt Q96GW9) in the list: -0.389	-0.00166	0.202	-0.293
# MAP7D2 C574 in the list: -0.0371	-0.174	0.0703	0.048
